Source: PubChem BioAssay AID1224826 (NIAID, 2016)

Purpose: 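Genes that change LPS-induced Tnf promoter activity in mouse macrophages when knocked down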 (primary screen)
Cell system: RAW264.7 G9 macrophages from mouse bearing reporters for p65 (GFP) and the Tnf promoter (mCherry)
Knock-down reagent: siRNA pool against mouse genes, 100 nM
Time to read-out: 16 h of LPS stimulation, after 2 days of siRNA transfection
Challenge: bacterial lipopolysaccharide (Salmonella minnesota R595), 10 ng/ml
Detection: 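Nuclear mCherry signal of the Tnf promoter reporter measured by imaging after background removal, scaled to each plate median and turned into robust z-scores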
Direction: Tnf reporter robust z-score: higher = stronger Tnf promoter reporter signal after LPS; Tnf reporter intensity: higher = stronger Tnf promoter reporter signal
Rule for the call: 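Called active when robust z-score is at most -1.3, matching the median of the Tlr4 knock-down control, or over 3; control wells and wells with under 50 cells never active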
Calls: active = Tnf reporter clearly lowered or raised; inactive = no clear change in Tnf reporter
Shown is a random part of about 17,000 reagents. Of all reagents, about 1,110 (6.6%) got an active call. 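Active means lowered or raised reporter signal; replicate intensities are raw and not normalised per plate.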 The numbers tell different reagents against one gene apart.

gene,pool no.,Tnf reporter robust z-score,fewer than 50 cells in well,"Tnf reporter intensity, replicate 1","Tnf reporter intensity, replicate 2",activity call
Ccn1 (GeneID 16007),1,-0.24,enough cells in well,216,185,inactive
Sephs2 (GeneID 20768),1,0.55,enough cells in well,232,191,inactive
Or1j19 (GeneID 258946),1,-0.45,enough cells in well,170,90.6,inactive
Fkbp8 (GeneID 14232),1,-0.39,enough cells in well,255,175,inactive
Psmb10 (GeneID 19171),1,0.34,enough cells in well,274,214,inactive
Fhit (GeneID 14198),1,-0.59,enough cells in well,203,190,inactive
Tor1aip2 (GeneID 240832),1,0.61,enough cells in well,239,109,inactive
Tor1aip2 (GeneID 240832),2,0.73,enough cells in well,213,191,inactive
Pon1 (GeneID 18979),1,-0.53,enough cells in well,197,162,inactive
Kazald1 (GeneID 107250),1,-0.7,enough cells in well,186,115,inactive
Hax1 (GeneID 23897),1,-0.26,enough cells in well,233,115,inactive
Cdc26 (GeneID 66440),1,1.06,enough cells in well,222,240,inactive
Chm (GeneID 12662),1,-0.17,enough cells in well,280,150,inactive
Hbs1l (GeneID 56422),1,-0.39,enough cells in well,294,87.7,inactive
Ube4a (GeneID 140630),1,1.78,enough cells in well,386,346,inactive
Cfap36 (GeneID 216618),1,,fewer than 50 cells per well; well left out of calls,187,46.5,inactive
C1qb (GeneID 12260),1,-0.81,enough cells in well,95.6,131,inactive
Tram1 (GeneID 72265),1,1.04,enough cells in well,344,270,inactive
Anln (GeneID 68743),1,0.21,enough cells in well,177,185,inactive
Mtmr14 (GeneID 97287),1,-0.02,enough cells in well,289,68.6,inactive
Zfp326 (GeneID 54367),1,0.29,enough cells in well,146,125,inactive
Zic4 (GeneID 22774),1,-1.34,enough cells in well,52.8,67.3,active
Prpf40a (GeneID 56194),1,0.01,enough cells in well,170,189,inactive

4 of these entries, reformatted:
Tor1aip2 (GeneID 240832) #1: Tnf reporter robust z-score = 0.61; fewer than 50 cells in well = enough cells in well; Tnf reporter intensity, replicate 1 = 239; Tnf reporter intensity, replicate 2 = 109; activity call = inactive
Tor1aip2 (GeneID 240832) #2: Tnf reporter robust z-score = 0.73; fewer than 50 cells in well = enough cells in well; Tnf reporter intensity, replicate 1 = 213; Tnf reporter intensity, replicate 2 = 191; activity call = inactive
Pon1 (GeneID 18979): Tnf reporter robust z-score = -0.53; fewer than 50 cells in well = enough cells in well; Tnf reporter intensity, replicate 1 = 197; Tnf reporter intensity, replicate 2 = 162; activity call = inactive
Kazald1 (GeneID 107250): Tnf reporter robust z-score = -0.7; fewer than 50 cells in well = enough cells in well; Tnf reporter intensity, replicate 1 = 186; Tnf reporter intensity, replicate 2 = 115; activity call = inactive

More entries:
gene,pool no.,Tnf reporter robust z-score,fewer than 50 cells in well,"Tnf reporter intensity, replicate 1","Tnf reporter intensity, replicate 2",activity call
Slc37a4 (GeneID 14385),1,,fewer than 50 cells per well; well left out of calls,85.6,102,inactive
Eya3 (GeneID 14050),1,2.34,enough cells in well,444,375,inactive
Actn2 (GeneID 11472),1,0.53,enough cells in well,201,197,inactive
Mlf1 (GeneID 17349),1,0.2,enough cells in well,255,241,inactive
Mat2a (GeneID 232087),1,-0.18,enough cells in well,188,130,inactive
Rbm41 (GeneID 237073),1,0.72,enough cells in well,242,195,inactive
Prss8 (GeneID 76560),1,-1.18,enough cells in well,83.3,88,inactive
Mettl9 (GeneID 59052),1,3.95,enough cells in well,370,247,active
Fam221b (GeneID 242408),1,-1.41,enough cells in well,127,28.6,active
Plek (GeneID 56193),1,-0.05,enough cells in well,256,177,inactive
Ntrk1 (GeneID 18211),1,0.82,enough cells in well,256,200,inactive
Uroc1 (GeneID 243537),1,0.25,enough cells in well,220,230,inactive
Or5w18 (GeneID 258290),1,-0.15,enough cells in well,175,145,inactive
Gnl3 (GeneID 30877),1,1.64,enough cells in well,253,276,inactive
Batf2 (GeneID 74481),1,-0.2,enough cells in well,99.6,139,inactive
Fkbp2 (GeneID 14227),1,-0.04,enough cells in well,292,197,inactive
Tigd4 (GeneID 403175),1,0.59,enough cells in well,145,179,inactive
